# Assay results

Data taken from PubChem BioAssay AID1159506, deposited by NCATS (2015).

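Genome-wide siRNA knockdown in TC32 Ewing sarcoma cells, comparing luciferase light from an NR0B1-promoter reporter with a CMV-promoter reporter 48 hours after transfection. Each siRNA was applied at 20 nM. A z-score of the log NR0B1-over-CMV signal, less the median of siRNAs with the same seed; more negative means a stronger specific loss of the NR0B1 reporter.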

The strongest results of the screen are mostly left out here. Sequences are the guide (antisense) strand, without overhang.

siRNA	gene	seed-corrected z-score
UUAGUUAUUGGUGGGUUGC	ADAM29	-0.7379
UUAUCUUGACCUUUAACUG	PI3	-0.3502
UUCCUGGCCACAUAAUUGA	NUDT2	-0.1014
UCUGUCAUAGGAUAAUCGC	UBTD2	-0.5265
UCAUGCGCAGGUUCAACUC	KRT14	-0.3138
UGUGCUUUAGGAGCUGAGA	CST6	-0.3147
UGCCGUUUAGUCCUAGUCC	FGF9	-0.2007
AUAGGUCAAGAAGAGACGG	B3GNT4	0.4772
AGUGGUAGAACUGAGAGCC	OR52D1	-1.524
UCCGUGACGACCCGUUUCA	HS3ST6	0.1516
UGACUUGUCAUGGACGAUG	GTF2IRD1	-0.5035
AUCUUCUCACGGUUCUCCC	ACTRT2	0.3218
UUCGGGAAUAGGAGAGGCU	PSMD3	-0.3008
AAAAUGGUAAGAGUCUUUC	SSBP4	0.03655
UUUCUCAGAUGGAUGCUCC	TRPV5	-0.8349
UUUCGAUUGUGAUAAAUUC	FAM92A1	1.557
UCCAUUCUCAUGGUCGUGG	MAPKAPK5	0.7765
UCAGGGAGCACGUUCACCA	SLC39A13	-0.3257
UCCUAUUACAUCCACAAUC	PRKAR2A	-0.1149
UACGCUAUAGACAGGCUCC	TBL1X	-0.3905
UCUCGAUCCUCACUGUAGC	HAP1	0.246
AAUAUGUCCAUUGUGAGUG	MUC20	-0.5162
AAACUCAUUAGGGAGGAGA	REG1B	-0.9636
UGUCUACAAAGGUUUGAUC	ZNF354C	-0.5729
UUGAGUAACAGGCACCAUG	LINC00960	-0.4576
UCAUCCUUCACUUCAUGCC	ZNF134	0.01558
AUUGUCAAUAGAUACAGUC	FYTTD1	-1.458
UAGCUUGCUCCUCAAAUCC	SAMD13	-0.1909
UUGAAGACAGUGUAGAUGA	DRD4	-0.07164
UUUCGAGCAACUUUGACAG	MSH6	-1.546
UCCUGUUCCUUCGAUGUGG	MYBL2	-1.076
UGAUGCUUCACAUCAUUCG	PRKX	0.6073
UGUCCGUUCUGUAUGCUCC	SIPA1L3	-0.1537
UUUGGAGUUAGAUAAGUUC	ADORA3	-0.4228
UCUCAAAUAGUCAUUAAUC	SERPINA11	0.06944
UUAAGUACUGAAUUAUUCC	ERAP2	-0.6222
UUCUUGACCAUUUCACUCC	PRSS44	0.1233
UUGGGCAAAAGUACAAAGU	TLX3	0.2422
UCCCUUUAGAGAUUCAUGG	CADM3	0.05952
UACGUAUUCCUGACGGUUC	SAMD9	-0.001894
UUGAUGACUAUUCCAAUUG	SLC10A5	-0.006862
UUCCCAUCUUGGAUGAUCC	NELL1	-0.00997
UCAAGUAUCCACCCAGGGC	PIM3	-0.03212
AUUCUGGUAAUUUUGCUGG	YBX1	1.091
UAUUCUGUAGAAUCGCACC	TMEM155	-0.4717
UAGAUGAUAAUUGCAGGAG	LINC00687	0.2617
UUGCAAUUUGGUGAAAAGC	MARCO	-0.6629
UUGGAAUGAAUGACUGUCC	TNS2	-0.3194
UGUUGGUAUAAAAUGCGGG	FOXN3-AS1	-1.219
UUACAGUAAAACCAGGUGG	MARCKSL1	0.8558
UGCAGAACGAAAUCGAGAC	NMD3	1.329
UUCAAAAGCAUGUUCGUAU	YPEL2	0.4902
UGAUGUUCAACUGCGGGAG	OCRL	-1.188
UUUCGAAAAAGUCCGGUUU	ARHGEF16	0.7293
UAACUGUUGCAGAUUUUCC	STX12	-0.06216
UUUUGUACUCUCGAGUCUU	SLC25A11	-0.06129
UAUCUGACUUGAAAUUUUC	LINC00998	0.6941
UCUGUCUUCACAUCGACUU	MIA	-1.429
UUGAUAAAUCUGGAGGUCG	FKRP	0.08632
UUCACUUCACGUUUCCAGG	APMAP	-0.0171
UUUGUGAACAAGCCUGUGA	KIR3DX1	-0.9338
UUCCCUCUUAGCCAGGAUC	PPP1R14D	-0.3223
UGUAAAUCCAGGGAAGAAC	TMPRSS13	-0.4773
UUUGUUUUCAGACGGAUCC	LOC729995	0.8402
UUGGUUUCCCGAAACUCCU	MIIP	-0.6989
AGAAGGUUCGGAGCUCUCU	ICAM5	-0.02918
UGAUCUACCACGGGAGCUG	C10orf91	-0.1559
UAAGCUUCGACAUUGCAAG	CDH8	0.6517
AUGGUGAUCACGUCGAUGC	GPR26	1.256
AUAUGUAUUCUGGUUGACC	DNAI1	-0.5208

For reference, 5 entries once more:

siRNA	gene	seed-corrected z-score
UGCCGUUUAGUCCUAGUCC	FGF9	-0.2007
UCUGUCAUAGGAUAAUCGC	UBTD2	-0.5265
UUUCUCAGAUGGAUGCUCC	TRPV5	-0.8349
UUCAAAAGCAUGUUCGUAU	YPEL2	0.4902
UAUUCUGUAGAAUCGCACC	TMEM155	-0.4717